From US20050037091A1, “Composition comprising paracetamol and a bitterness masking component” (priority 2001, published 2005)

Experiments:
[1] = Bitterness masking of additives added to Control Example 1, scored on the equi-bitter paracetamol scale
[2] = Bitterness of Control Example 1 with edible emulsifiers added; conditions: emulsifier 0.1 g per dose in Control Example 1, 40 ml, 100% paracetamol
[3] = additive 0.020 g/serving in Control Example 1, 40 ml
[4] = additive 0.040 g/serving in Control Example 1, 40 ml
[5] = additive 0.10 g/serving in Control Example 1, 40 ml
[6] = additive 0.20 g/serving in Control Example 1, 40 ml

NCC(=O)O [Glycine]
Equi-bitter paracetamol concentration (%) [1, 3]: 100%
Equi-bitter paracetamol concentration (%) [1, 4]: 95%
Equi-bitter paracetamol concentration (%) ([1]; additive 0.080 g/serving in Control Example 1, 40 ml): 90%
Equi-bitter paracetamol concentration (%) ([1]; additive 0.160 g/serving in Control Example 1, 40 ml): 85%
Equi-bitter paracetamol concentration (%) ([1]; additive 0.320 g/serving in Control Example 1, 40 ml): 80%

[Cl-].[Na+] [Sodium chloride]
Equi-bitter paracetamol concentration (%) ([1]; additive 0.0025 g/serving in Control Example 1, 40 ml): 100%
Equi-bitter paracetamol concentration (%) ([1]; additive 0.0050 g/serving in Control Example 1, 40 ml): 100%
Equi-bitter paracetamol concentration (%) ([1]; additive 0.010 g/serving in Control Example 1, 40 ml): Possible slight reduction
Equi-bitter paracetamol concentration (%) [1, 3]: Salty
Equi-bitter paracetamol concentration (%) [1, 4]: Salty

Magnesium gluconate
Equi-bitter paracetamol concentration (%) [1, 5]: 90%
Equi-bitter paracetamol concentration (%) [1, 6]: 85%
Equi-bitter paracetamol concentration (%) ([1]; additive 0.40 g/serving in Control Example 1, 40 ml): 80-82%
Equi-bitter paracetamol concentration (%) ([1]; additive 0.80 g/serving in Control Example 1, 40 ml): 75%
Equi-bitter paracetamol concentration (%) ([1]; additive 1.60 g/serving in Control Example 1, 40 ml): 70%

Polysorbate 80
bitterness of the formulation [2]: reduced bitterness

Sodium steroyl-1-lactylate [sodium steroyl-2-actylate]
bitterness of the formulation [2]: no reduction

Sucrose ester
Equi-bitter paracetamol concentration (%) ([1]; additive 0.025 g/serving in Control Example 1, 40 ml): 100%
Equi-bitter paracetamol concentration (%) ([1]; additive 0.050 g/serving in Control Example 1, 40 ml): 100%
Equi-bitter paracetamol concentration (%) [1, 5]: 95-100%
Equi-bitter paracetamol concentration (%) ([1]; additive 0.150 g/serving in Control Example 1, 40 ml): 90-95%
Equi-bitter paracetamol concentration (%) [1, 6]: 90%
